In US8772335B2, “Adamantyl derivatives as therapeutic agents” (Women & Infants' Hospital of Rhode Island, priority 2011, dated 2014):
Some of these results come from one statement about several compounds together. At least one compound was matched to its structure with a doubt left.

System: various types of tumor cells
Experiment: MTS cell viability, panel of cancer cell lines
Assay type: cell-based
Conditions: MTS assay

S=C=NCC12CC3CC(CC(C3)C1)C2 [AMITC, adamantyl methyl isothiocyanate]
drug concentrations that diminished the viability of various types of tumor cells: ≥ 10 µM
